Literature values, collected in patent US20130210794A1, “NANOSTRUCTURED EZETIMIBE COMPOSITIONS, PROCESS FOR THE PREPARATION THEREOF AND PHARMACEUTICAL COMPOSITIONS CONTAINING THEM” (priority 2010, published 2013).
Some of these results come from one statement about several compounds together.

Test system: human plasma proteins
Details: cited from earlier work

O=C1[C@H](CC[C@H](O)c2ccc(F)cc2)[C@@H](c2ccc(O)cc2)N1c1ccc(F)cc1 [Ezetimibe, 1-(4-fluorophenyl)-3(R)-[3-(4-fluorophenyl)-3(S)-hydroxypropyl]-4(S)-(4-hydroxyphenyl)-2-azetidinone]
bound to human plasma proteins: > 90%
